Values from PubChem BioAssay AID686937 (Drosophila RNAi Screening Center, 2013)
The screen tested about 23,000 reagents; below is an unselected part of those with a known target gene and a result. 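Reduced-secretion tags in replicate 1 do not always agree with the z-scores; no criterion for assigning the tags was given.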 A plus sign joins genes that one reagent is predicted to hit. Not all columns of the deposit are shown. Not given: the amount of reagent.

- Assay: 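Knock-downs that reduce output of a secreted reporter enzyme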 (primary screen)
- System: Drosophila S2 cells expressing secreted horseradish peroxidase
- Reagents: long dsRNA against Drosophila genes
- Time to read-out: about 5.5 days (5 days dsRNA, then 12 h reporter induction)
- Conditions: reporter expression induced after 5 days of dsRNA, read 12 h later; inducer not stated
- Read-out: 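Chemiluminescent measurement of peroxidase in the medium 12 h after reporter induction, following 5 days of dsRNA, given as a z-score per plate; higher means more secretion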
- Scale: z-score: higher = more reporter secreted into medium

Silencing of tld (GeneID 42945) [DRSC17084] resulted in: z-score, replicate 1 = 0.69. Depletion of CG7029 (GeneID 42703) [DRSC16177] gave: z-score, replicate 1 = -1. With knock-down of CG6567 + CG42394 [DRSC22241], the record shows z-score, replicate 1 = -0.14. CG17821 (GeneID 37159) [DRSC06696] showed z-score, replicate 1 = 0.29. Knock-down of CG14441 (GeneID 31611) [DRSC17934] came out at: z-score, replicate 1 = 0.02. For CG2938 (GeneID 31347) [DRSC18243] the deposit lists z-score, replicate 1 = 0.45.

After knock-down of ken (GeneID 37785) [DRSC04696], the record shows z-score, replicate 1 = -1.54; phenotype, replicate 1 = reduced secretion. For CG34304 (retired record) (GeneID 5740404) [DRSC12810] the deposit lists z-score, replicate 1 = 0.31. For Nos (GeneID 34495) [DRSC03381], the entry reads z-score, replicate 1 = 0.4. After knock-down of mAChR-B (GeneID 40955) [DRSC16345] the results were z-score, replicate 1 = 0.34. Silencing of CG9967 (GeneID 33414) [DRSC00742] gave: z-score, replicate 1 = -6.75. Cchl (GeneID 42590) [DRSC15949] gave z-score, replicate 1 = 0.39.

Against CG18266 (GeneID 33792) [DRSC02659], the entry reads z-score, replicate 1 = 0.3. With knock-down of wfs1 (GeneID 42679) [DRSC15676], the screen gave z-score, replicate 1 = 0.31. Knock-down of CG4983 (GeneID 34585) [DRSC02799] gave: z-score, replicate 1 = 0.44. CG11658 (GeneID 39319) [DRSC09852] gave z-score, replicate 1 = -0.09. With knock-down of CG3982 (GeneID 39084) [DRSC10394], the record shows z-score, replicate 1 = -2.58; phenotype, replicate 1 = reduced secretion. Knock-down of Nup93-1 (GeneID 32350) [DRSC19344] came out at: z-score, replicate 1 = -1.93; phenotype, replicate 1 = reduced secretion.

With knock-down of Tim8 (GeneID 32081) [DRSC20291], the screen gave z-score, replicate 1 = 0.13. After knock-down of feo (GeneID 32015) [DRSC19398] the results were z-score, replicate 1 = 0.51. CG12640 (GeneID 31973) [DRSC17847] gave z-score, replicate 1 = 0.46. RhoGAP1A (GeneID 5740235) [DRSC20649] scored z-score, replicate 1 = 0.5. Depletion of RhoGAP1A (GeneID 5740235) [DRSC20651] gave: z-score, replicate 1 = 0.35. After knock-down of AstC-R1 (GeneID 40020) [DRSC10799] the results were z-score, replicate 1 = 0.22.

Depletion of CG3652 (GeneID 33643) [DRSC00624] came out at: z-score, replicate 1 = 0.52. Against CG30471 (GeneID 246633) [DRSC07096], the values are z-score, replicate 1 = 0.42. Knock-down of mxt (GeneID 33686) [DRSC00551] came out at: z-score, replicate 1 = 0.6. With knock-down of CG4619 (GeneID 34321) [DRSC02764], the screen gave z-score, replicate 1 = 0.11. Silencing of DJ-1alpha (GeneID 36543) [DRSC07005] came out at: z-score, replicate 1 = 0.22. With knock-down of Mgat2 (GeneID 43563) [DRSC16347], the screen gave z-score, replicate 1 = 0.4.

Knock-down of FucTA (GeneID 39653) [DRSC10733] gave: z-score, replicate 1 = 0.23. Against Nha2 + asRNA:CR43454 [DRSC13594] the deposit lists z-score, replicate 1 = -0.17. With knock-down of CG13229 (GeneID 36168) [DRSC06349], the record shows z-score, replicate 1 = 0.31. Against CG5664 (GeneID 40371) [DRSC11782], the entry reads z-score, replicate 1 = 0.74. After knock-down of haf (GeneID 33339) [DRSC00381], the record shows z-score, replicate 1 = -0.05. CG14644 (GeneID 40536) [DRSC12230] showed z-score, replicate 1 = 0.21.

Against eIF1 (GeneID 38398) [DRSC08520] the deposit lists z-score, replicate 1 = -1.74; phenotype, replicate 1 = reduced secretion. Trissin (GeneID 41890) [DRSC14994] scored z-score, replicate 1 = 0.4. Atg4b (GeneID 41868) [DRSC15988] scored z-score, replicate 1 = 0.07. Against CG5391 (GeneID 42611) [DRSC15790], the entry reads z-score, replicate 1 = 0.34. Against CG13126 (GeneID 34323) [DRSC02222] the deposit lists z-score, replicate 1 = 0.55. After knock-down of Cpr97Ea (GeneID 43258) [DRSC15974] the results were z-score, replicate 1 = 0.09.

With knock-down of Eglp4 (GeneID 37739) [DRSC04438] the results were z-score, replicate 1 = -0.11. Silencing of asRNA:CR43477 + CG12256 [DRSC14484] came out at: z-score, replicate 1 = 0.29. Depletion of mora (GeneID 42874) [DRSC16594] came out at: z-score, replicate 1 = 0.32. After knock-down of Pka-R1 (GeneID 40305) [DRSC11674] the results were z-score, replicate 1 = 0.17. After knock-down of Pka-R1 (GeneID 40305) [DRSC11875], the record shows z-score, replicate 1 = 0.17. With knock-down of Sr-CIII (GeneID 44382) [DRSC22262], the screen gave z-score, replicate 1 = -1.33.

For CG17272 (GeneID 42465) [DRSC15211], the entry reads z-score, replicate 1 = -0.13. Depletion of CG15136 (GeneID 35033) [DRSC02436] came out at: z-score, replicate 1 = -0.13. Depletion of Rim2 (GeneID 33350) [DRSC00073] came out at: z-score, replicate 1 = 0.41. Against Rim2 (GeneID 33350) [DRSC00520] the deposit lists z-score, replicate 1 = 0.3. Rim2 (GeneID 33350) [DRSC22699] scored z-score, replicate 1 = -0.84.

Limited to “z-score, replicate 1”, for 3 of the entries above:
CG4983 (GeneID 34585) [DRSC02799]: 0.44
CG11658 (GeneID 39319) [DRSC09852]: -0.09
CG3982 (GeneID 39084) [DRSC10394]: -2.58
